{
  "sequences": {"note": "Sequences of proteins named here, by UniProt entry; tags and fusion partners are left off.", "UniProt P51449": "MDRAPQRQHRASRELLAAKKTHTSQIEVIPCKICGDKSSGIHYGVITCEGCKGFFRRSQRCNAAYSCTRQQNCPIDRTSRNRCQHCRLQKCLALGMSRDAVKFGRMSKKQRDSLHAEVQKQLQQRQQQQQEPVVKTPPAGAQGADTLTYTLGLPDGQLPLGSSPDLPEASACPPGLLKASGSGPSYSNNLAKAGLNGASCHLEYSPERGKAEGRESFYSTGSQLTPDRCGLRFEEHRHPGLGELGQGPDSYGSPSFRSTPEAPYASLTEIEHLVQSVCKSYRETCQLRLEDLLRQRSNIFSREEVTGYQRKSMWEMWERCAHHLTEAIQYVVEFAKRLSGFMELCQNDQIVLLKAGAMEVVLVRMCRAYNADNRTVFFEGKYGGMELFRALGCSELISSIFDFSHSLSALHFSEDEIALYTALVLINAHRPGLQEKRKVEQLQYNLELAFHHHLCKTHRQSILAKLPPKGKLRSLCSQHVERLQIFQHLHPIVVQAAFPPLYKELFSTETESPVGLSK"},
  "source": "paper PMC8036795",
  "binders": {"B1": {"name": "PDZ binding kinase (PBK) (protein, UniProt Q96KB5 1-322)", "chain": "MEGISNFKTPSKLSEKKKSVLCSTPTINIPASPFMQKLGFGTGVNVYLMKRSPRGLSHSPWAVKKINPICNDHYRSVYQKRLMDEAKILKSLHHPNIVGYRAFTEANDGSLCLAMEYGGEKSLNDLIEERYKASQDPFPAAIILKVALNMARGLKYLHQEKKLLHGDIKSSNVVIKGDFETIKICDVGVSLPLDENMTVTDPEACYIGTEPWKPKEAVEENGVITDKADIFAFGLTLWEMMTLSIPHINLSNDDDDEDKTFDESDFDDEAYYAALGTRPPINMEELDESYQKVIELFSVCTNEDPKDRPSAAHIVEALETDV"}},
  "target": "V5-RORγ (RAR-related orphan receptor gamma) (human) (UniProt P51449)",
  "experiment": "co-IP; nuclear extracts of C4-2B cells expressing V5-RORγ; anti-V5 or control IgG antibody-coated magnetic beads, 4 °C overnight; washed 5 times with 50 mM Tris-HCl pH7.5, 200 mM NaCl, 5 mM EDTA, 1% Triton; Western blotting with anti-PBK or RORγ antibody",
  "note": "These are yes or no findings as the source states them, for the method shown. In cells and extracts the contact can be indirect. Some results given as binding are weak or reduced against the parent protein; the word gives no strength.",
  "data": [
    {"binder": "B1", "values": [
      {"measurement": "binding", "result": "binds"}
    ]}
  ]
}
